Assay [1] addresses His6-tagged BiP ATPase domain (residues 28–405) (human) (UniProt P11021). As to the kind of experiment: cross-linking; EGS, 50-fold molar excess, 1 hr; proteins at 50 μM in 50 mM Hepes pH 8.0, 50 mM NaCl, 5% glycerol, 5 mM DTT; alone or in 1:1 molar mixture; SDS-PAGE and anti-His6 blot; both purified.
Assay [2] addresses His6-tagged full-length BiP (residues 28–654) (human) (UniProt P11021). As to the kind of experiment: pull-down; both purified.
Assay [3] has as its target full-length BiP (BiP FL, residues 28–654), His6-tag removed (human) (UniProt P11021). As to the kind of experiment: MST; as a1, buffer B with 10 mM ATP, ADP or AMPPNP, 10 mM MgCl2 and 30 mM KCl; 25°C; both purified.
Assay [4] addresses His6-tagged BiP ATPase domain (residues 28–405) (human) (UniProt P11021). As to the kind of experiment: pull-down; His6-tagged BiP protein (25 μM) held on TALON resin, untagged Ire1 LD, Perk LD or CH1 at 500 μM added, 1 hr RT, buffer B; SDS-PAGE, coomassie; both purified.
For assay [5], the target named is His6-tagged BiP substrate binding domain (residues 422–654) (human) (UniProt P11021). The assay is described as above.
The target of assay [6] is His6-tagged full-length BiP (residues 28–654) (human) (UniProt P11021). Described as above.
For assay [7] the target is unchanged. As to the kind of experiment: pull-down; competition pull-down: His6-tagged full-length BiP on TALON resin; CH1 (500 μM) added to the BiP-luminal domain complex, or BiP first incubated with CH1 and luminal domains then added; buffer B, RT; both purified.
For assay [8] the target is unchanged. As to the kind of experiment: condition: only BiP first incubated with CH1 (500 μM); pull-down; competition pull-down: His6-tagged full-length BiP on TALON resin; CH1 (500 μM) added to the BiP-luminal domain complex, or BiP first incubated with CH1 and luminal domains then added; buffer B, RT; both purified.
For assay [9], the target named is BiP substrate binding domain (residues 422–654), His6-tag removed (human) (UniProt P11021). In words: MST; Monolith NT.115; buffer B (50 mM HEPES pH 7.5, 75 mM NaCl, 10% glycerol, 1 mM TCEP), no nucleotide; one partner labelled (Red-NHS) at 50 nM, sixteen twofold dilutions of the unlabelled partner (which was labelled is not told); 25°C; three independent experiments averaged; both purified.

The chains behind the UniProt entries cited, without tags or fusion partners. Where a name states a change or a piece, a line headed by the entry shows the natural chain unless it says otherwise. A line that says so, or that is headed by a name, gives the form on record, which may keep a tag or linker. Residues count along the entry.
UniProt P11021: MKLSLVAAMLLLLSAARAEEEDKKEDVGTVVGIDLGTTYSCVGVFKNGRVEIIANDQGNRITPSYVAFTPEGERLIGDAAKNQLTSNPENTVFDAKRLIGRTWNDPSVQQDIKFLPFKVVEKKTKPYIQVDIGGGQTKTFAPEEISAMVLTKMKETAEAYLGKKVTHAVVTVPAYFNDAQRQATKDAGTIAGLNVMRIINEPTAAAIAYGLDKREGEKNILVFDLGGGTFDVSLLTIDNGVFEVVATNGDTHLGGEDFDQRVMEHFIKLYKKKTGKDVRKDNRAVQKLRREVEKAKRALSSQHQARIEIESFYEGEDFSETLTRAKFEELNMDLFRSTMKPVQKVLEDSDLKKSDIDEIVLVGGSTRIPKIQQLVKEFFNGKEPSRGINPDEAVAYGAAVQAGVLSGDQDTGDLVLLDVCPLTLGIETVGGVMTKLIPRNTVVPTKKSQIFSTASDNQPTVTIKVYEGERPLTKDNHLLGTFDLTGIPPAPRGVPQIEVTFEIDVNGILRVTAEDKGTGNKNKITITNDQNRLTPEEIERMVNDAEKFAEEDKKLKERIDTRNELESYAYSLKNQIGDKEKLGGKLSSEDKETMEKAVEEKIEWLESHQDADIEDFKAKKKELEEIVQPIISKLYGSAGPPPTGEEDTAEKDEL
His6-tagged full-length BiP (residues 28–654): residues 28-654 of P11021
BiP substrate binding domain (residues 422–654), His6-tag removed: residues 422-654 of P11021
UniProt Q9NZJ5, residues 54-509: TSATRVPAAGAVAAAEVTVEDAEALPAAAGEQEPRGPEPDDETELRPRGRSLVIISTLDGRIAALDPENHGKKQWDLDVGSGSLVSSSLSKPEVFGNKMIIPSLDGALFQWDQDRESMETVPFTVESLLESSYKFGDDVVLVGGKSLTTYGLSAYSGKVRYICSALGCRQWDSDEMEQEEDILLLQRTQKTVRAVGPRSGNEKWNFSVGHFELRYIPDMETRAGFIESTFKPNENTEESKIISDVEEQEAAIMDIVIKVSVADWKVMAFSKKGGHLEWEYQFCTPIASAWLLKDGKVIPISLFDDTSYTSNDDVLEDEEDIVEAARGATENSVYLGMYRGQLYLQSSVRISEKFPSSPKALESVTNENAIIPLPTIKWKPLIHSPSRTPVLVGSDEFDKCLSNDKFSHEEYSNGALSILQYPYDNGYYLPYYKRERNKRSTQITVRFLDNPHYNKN

No constants are given. Whether binding was seen depends on the method and setting. Some entries that bind do so weakly or less than the wild type.

On to “His6-tagged BiP ATPase domain (residues 28–405) (from UniProt P11021 28-405) (domain or fragment)”, for which the binding entry in assay [1] is “no binding (tested: 50 μM)”.

Consider “Perk luminal domain, complete (region I–V, residues 54–509) (from UniProt Q9NZJ5 54-509) (domain or fragment)”, for which the binding result is reported as “binds” in [2]; “binds” in assay [3]; “binds” in assay [4]; “no binding (tested: 500 μM)” in [5]; “binds” in [6]; “binds” in assay [7]. The binding entry in assay [8] and in assay [9] was “no binding” each time.

The values above are taken from paper PMC4337721.
